According to PubChem BioAssay AID342 (DTP/NCI, 2004):
The list does not hold the whole screen: it is rich in T/C values a quarter to a half above the control, in often repeated tests (any T/C) and in doses without a T/C. Other doses and runs of a compound stand elsewhere. T/C gives the treated animals as a percentage of the vehicle group. Schedule codes are those of the source, taken here to give the interval after Q, in days (D) or hours (H), and the number of doses after X. Some entries were tested several times; the values are given in rising order. Some schedules carry Z or #; the key to these is not given. Some T/C values are followed by the survivors on the day toxicity was checked, most often the fifth; without a count, all were alive then. Some entries give survivors of the animals treated and no T/C: the source holds a T/C of zero for them, seemingly a mark for toxic or unscored doses. Survivors were counted at the toxicity check, usually on the fifth day, unless a day is given; later deaths do not show.

Tested on: Swiss mice, Sarcoma 180 sc, mean tumor weight T/C
Test: NCI In Vivo Anticancer Drug Screen. Data for tumor model Sarcoma 180 (subcutaneous) in Swiss mice
Conditions: T/C endpoint: mean tumor weight, higher T/C = larger tumour; for T/C: evaluated on day 8
Outline: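 T/C ratio: treated over vehicle-treated controls, measuring survival or tumor size in transplanted-tumor mice.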

[1] = dose: 1000.0 mg/kg/injection, schedule: Q01DX007 (sc), vehicle: steroid suspending solution
[2] = dose: 75.0 mg/kg/injection, schedule: Q01DX007 (ip), vehicle: carboxymethylcellulose (CMC)
[3] = dose: 166.5 mg/kg/injection, schedule: Q#A X014 (ip), vehicle: methylcellulose (MC)
[4] = dose: 250.0 mg/kg/injection, schedule: Q#A X014 (ip), vehicle: methylcellulose (MC)
[5] = dose: 375.0 mg/kg/injection, schedule: Q#A X014 (ip), vehicle: methylcellulose (MC)

O=c1[nH]cc(N(CCCl)CCCl)c(=O)[nH]1
survivor count (dose: 1.25 mg/kg/injection, schedule: Q#A X014 (ip), vehicle: carboxymethylcellulose (CMC)): 2 of 6
survivor count (dose: 1.6 mg/kg/injection, schedule: Q01DX007 (ip), vehicle: carboxymethylcellulose (CMC)): 6 of 10
survivor count (dose: 3.0 mg/kg/injection, schedule: Q01DX007 (ip), vehicle: saline): 3 of 6

C=CC(CN1CC1)OC(C)=O (stereo not drawn)
survivor count (dose: 4.6 mg/kg/injection, schedule: Q01DX007 (ip), vehicle: carboxymethylcellulose (CMC)): 1 of 10
survivor count (dose: 9.2 mg/kg/injection, schedule: Q01DX007 (ip), vehicle: carboxymethylcellulose (CMC)): 6 of 10

COc1cc([C@@H]2c3cc4c(cc3[C@H](O)[C@H]3COC(=O)[C@H]23)OCO4)cc(OC)c1OC
T/C (dose: 0.22 mg/kg/injection, schedule: Q01DX007 (ip), vehicle: carboxymethylcellulose (CMC)): 133 % of control [9 of 10 alive]
survivor count (dose: 1.8 mg/kg/injection, schedule: Q01DX007 (ip), vehicle: carboxymethylcellulose (CMC)): 3 of 10
T/C (dose: 700.0 micrograms/kg/injection, schedule: Q01DX007 (ip), vehicle: carboxymethylcellulose (CMC)): 137 % of control

O=C(O)C(=O)O.[U]
survivor count (dose: 41.7 mg/kg/injection, schedule: Q01DX007 (ip), vehicle: saline): 3 of 6

O=C1C=CC2(CCC23C=CC(=O)O3)O1 (stereo not drawn)
survivor count (dose: 65.0 mg/kg/injection, schedule: Q01DX007 (ip), vehicle: saline): 3 of 6
survivor count (dose: 95.0 mg/kg/injection, schedule: Q01DX007 (ip), vehicle: saline): 2 of 6
survivor count (dose: 145.0 mg/kg/injection, schedule: Q01DX007 (ip), vehicle: saline): 0 of 6

C[C@]12C=CC(=O)C=C1CC[C@@H]1[C@@H]2CC[C@]2(C)OC(=O)CC[C@@H]12
T/C (dose: 125.0 mg/kg/injection, schedule: Q01DX007 (sc), vehicle: steroid suspending solution): 135 and 139 % of control
T/C [1]: 139 % of control [8 of 10 alive]
survivor count [1]: 5 of 10

CCc1nc(N)nc(N)c1-c1ccc(Cl)c(Cl)c1.[Cl][Pd][Cl]
survivor count (dose: 22.5 mg/kg/injection, schedule: Q01DX007 (ip), vehicle: carboxymethylcellulose (CMC)): 4 of 7
survivor count (dose: 33.0 mg/kg/injection, schedule: Q01DX007 (ip), vehicle: carboxymethylcellulose (CMC)): 0 of 6
survivor count (dose: 50.0 mg/kg/injection, schedule: Q01DX007 (ip), vehicle: carboxymethylcellulose (CMC)): 0 of 6
survivor count [2]: 0 of 6

COS(C)(=O)=O
survivor count (dose: 100.0 mg/kg/injection, schedule: Q01DX007 (ip), vehicle: carboxymethylcellulose (CMC)): 3 of 6
survivor count (dose: 200.0 mg/kg/injection, schedule: Q01DX007 (ip), vehicle: carboxymethylcellulose (CMC)): 0 of 6

O=C(c1ccccc1)C(C(=O)c1ccccc1)C(=O)c1ccccc1.O=C(c1ccccc1)C(C(=O)c1ccccc1)C(=O)c1ccccc1.[Cu]
survivor count (dose: 190.0 mg/kg/injection, schedule: Q01DX007 (ip), vehicle: carboxymethylcellulose (CMC)): 3 of 6
survivor count (dose: 426.0 mg/kg/injection, schedule: Q01DX007 (ip), vehicle: carboxymethylcellulose (CMC)): 1 of 6

O=C(O)C(O)C(F)(F)F (stereo not drawn)
T/C (dose: 15.5 mg/kg/injection, schedule: Q#A X014 (ip), vehicle: saline): 128 % of control
survivor count (dose: 62.5 mg/kg/injection, schedule: Q#A X014 (ip), vehicle: saline): 3 of 6
survivor count (dose: 125.0 mg/kg/injection, schedule: Q#A X014 (ip), vehicle: saline): 2 of 6

O=C(N[C@H](CO)[C@H](O)c1ccc([N+](=O)[O-])cc1)C(Cl)Cl
T/C (dose: 125.0 mg/kg/injection, schedule: Q01DX007 (ip), vehicle: carboxymethylcellulose (CMC)): 139 % of control
survivor count (dose: 750.0 mg/kg/injection, schedule: Q#A X014 (ip), vehicle: carboxymethylcellulose (CMC)): 3 of 6
survivor count (dose: 1000.0 mg/kg/injection, schedule: Q01DX007 (ip), vehicle: carboxymethylcellulose (CMC)): 2 of 10

O=C(Nc1ccc(C2=NCCN2)cc1)c1cccc(C(=O)Nc2ccc(C3=NCCN3)cc2)c1
T/C (dose: 2.4 mg/kg/injection, schedule: Q01DX007 (ip), vehicle: carboxymethylcellulose (CMC)): 132 % of control
survivor count (dose: 18.75 mg/kg/injection, schedule: Q01DX007 (ip), vehicle: carboxymethylcellulose (CMC)): 1 of 6
T/C (dose: 30.0 mg/kg/injection, schedule: Q01DX007 (ip), vehicle: carboxymethylcellulose (CMC)): 127 % of control
survivor count (dose: 37.5 mg/kg/injection, schedule: Q01DX007 (ip), vehicle: carboxymethylcellulose (CMC)): 3 of 6
survivor count [2]: 0 of 6
survivor count (dose: 150.0 mg/kg/injection, schedule: Q01DX007 (ip), vehicle: carboxymethylcellulose (CMC)): 0 of 6
survivor count (dose: 400.0 mg/kg/injection, schedule: Q01DX007 (ip), vehicle: water): 0 of 6
survivor count (dose: 480.0 mg/kg/injection, schedule: Q01DX007 (ip), vehicle: water): 0 of 6
survivor count (dose: 600.0 mg/kg/injection, schedule: Q01DX007 (ip), vehicle: water): 0 of 6

O=NN1CCN(N=O)CC1
T/C (dose: 10.12 mg/kg/injection, schedule: Q#A X014 (ip), vehicle: carboxymethylcellulose (CMC)): 129 % of control

NC1=CC(=O)c2ccccc2C1=O
survivor count (dose: 12.5 mg/kg/injection, schedule: Q01DX007 (ip), vehicle: other): 2 of 6
T/C (dose: 15.0 mg/kg/injection, schedule: Q01DX007 (ip), vehicle: other): 131 % of control

CC[C@]1(O)C[C@H]2CN(CCc3c([nH]c4ccccc34)[C@@](C(=O)OC)(c3cc4c(cc3OC)N(C=O)[C@H]3[C@@](O)(C(=O)OC)[C@H](OC(C)=O)[C@]5(CC)C=CCN6CC[C@]43[C@@H]65)C2)C1
survivor count (dose: 0.25 mg/kg/injection, schedule: Q01DX007 (ip), vehicle: saline): 1 of 7

CSCS(=O)C[C@H](CO)NC(=O)/C=C/c1c(C)[nH]c(=O)[nH]c1=O (stereo partly drawn)
T/C (dose: 0.75 mg/kg/injection, schedule: Q03DX003 (ip), vehicle: saline): 132 % of control
survivor count (dose: 0.75 mg/kg/injection, schedule: Q#A X014 (ip), vehicle: carboxymethylcellulose (CMC)): 1 of 7
survivor count (dose: 2.0 mg/kg/injection, schedule: Q01DX007 (iv), vehicle: saline): 1 of 6
survivor count (dose: 250.0 mg/kg/injection, schedule: Q#A X014 (ip), vehicle: carboxymethylcellulose (CMC)): 3 of 6

CC(C)CC(C#N)C(N)=O (stereo not drawn)
T/C (dose: 15.0 mg/kg/injection, schedule: Q01DX007 (ip), vehicle: methylcellulose (MC)): 138 % of control [5 of 6 alive]

COc1ccc2c3c([nH]c2c1)[C@H]1C[C@H]2[C@H](C[C@@H](O)[C@H](OC)[C@H]2CO)CN1CC3
T/C (dose: 4.0 mg/kg/injection, schedule: Q01DX007 (ip), vehicle: saline): 138 % of control

O=C(CCCl)N1CCN(C(=O)CCCl)CC1
T/C [3]: 37, 63 [4 of 6 alive], 87 % of control
survivor count [3]: 3 of 6
T/C [4]: 29, 45, 66 [5 of 6 alive], 117 % of control
survivor count [4]: 2 of 6
T/C [5]: 8, 12 [5 of 6 alive], 54 % of control [5 of 6 alive]
survivor count [5]: 2 of 6 and 3 of 6

CC[C@H](c1ccc(O)cc1)[C@@H](CC)c1ccc(O)cc1
survivor count (dose: 500.0 mg/kg/injection, schedule: Q01DX007 (sc), vehicle: steroid suspending solution): 0 of 6

NN1CCCC1
survivor count (dose: 113.0 mg/kg/injection, schedule: Q01DX007 (ip), vehicle: carboxymethylcellulose (CMC)): 0 of 6
survivor count (dose: 300.0 mg/kg/injection, schedule: Q01DX007 (ip), vehicle: saline): 2 of 6
survivor count (dose: 450.0 mg/kg/injection, schedule: Q01DX007 (ip), vehicle: saline): 0 of 6
